These are yes or no findings as the source states them, for the method shown. A result given as binding can be weak or reduced; the word gives no strength.
B1: RAS9-G12C peptide (peptide)
peptide: LVVVGACGV
B2: RAS9-G12D peptide (peptide)
peptide: LVVVGADGV

Target: HLA-A0201 on T2 cells without added peptide (human)
Test: T2 stabilization, flow cytometry: BB7 (anti-HLA-A2) staining of T2 cells alone or pulsed with peptide at 50, 10, 2 ug/ml
Conditions: remark: other sources report otherwise

Binder | binding
B1 | binds
B2 | binds
